Assay [1] concerns the target T1, CTPS-TurboID-V5 (wild-type Drosophila CTP synthase fused to TurboID and V5) (Drosophila) (UniProt Q9VUL1).
T1 sequence: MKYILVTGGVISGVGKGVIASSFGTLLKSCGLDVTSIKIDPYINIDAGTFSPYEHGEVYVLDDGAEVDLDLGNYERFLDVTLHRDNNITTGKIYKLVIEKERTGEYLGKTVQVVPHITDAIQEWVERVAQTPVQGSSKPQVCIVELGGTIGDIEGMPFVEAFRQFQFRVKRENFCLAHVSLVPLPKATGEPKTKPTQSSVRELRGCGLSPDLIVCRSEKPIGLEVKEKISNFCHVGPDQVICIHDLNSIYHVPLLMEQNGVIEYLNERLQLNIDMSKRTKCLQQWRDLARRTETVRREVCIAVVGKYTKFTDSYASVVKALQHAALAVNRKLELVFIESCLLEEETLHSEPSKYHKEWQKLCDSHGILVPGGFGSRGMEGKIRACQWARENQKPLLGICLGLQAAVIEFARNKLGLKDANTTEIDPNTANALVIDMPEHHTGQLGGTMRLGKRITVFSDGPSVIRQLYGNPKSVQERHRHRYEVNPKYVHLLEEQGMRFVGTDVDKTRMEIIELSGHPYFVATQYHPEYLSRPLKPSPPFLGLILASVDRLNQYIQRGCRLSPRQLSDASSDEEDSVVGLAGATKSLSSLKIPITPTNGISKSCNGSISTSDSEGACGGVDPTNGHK
Kind of assay: proximity labelling; TurboID fused to CTPS, expressed by da-GAL4; about 60 ovaries from 14-day-old flies on 100 uM biotin food; biotinylated proteins captured on streptavidin magnetic beads, on-bead trypsin digestion, MS (Orbitrap Fusion, LFQ); compared with CTPS H355A-TurboID (disrupted cytoophidium); three replicates.

The chains behind the UniProt entries cited, without tags or fusion partners. Where a name states a change or a piece, a line headed by the entry shows the natural chain unless it says otherwise.
UniProt Q9VY91: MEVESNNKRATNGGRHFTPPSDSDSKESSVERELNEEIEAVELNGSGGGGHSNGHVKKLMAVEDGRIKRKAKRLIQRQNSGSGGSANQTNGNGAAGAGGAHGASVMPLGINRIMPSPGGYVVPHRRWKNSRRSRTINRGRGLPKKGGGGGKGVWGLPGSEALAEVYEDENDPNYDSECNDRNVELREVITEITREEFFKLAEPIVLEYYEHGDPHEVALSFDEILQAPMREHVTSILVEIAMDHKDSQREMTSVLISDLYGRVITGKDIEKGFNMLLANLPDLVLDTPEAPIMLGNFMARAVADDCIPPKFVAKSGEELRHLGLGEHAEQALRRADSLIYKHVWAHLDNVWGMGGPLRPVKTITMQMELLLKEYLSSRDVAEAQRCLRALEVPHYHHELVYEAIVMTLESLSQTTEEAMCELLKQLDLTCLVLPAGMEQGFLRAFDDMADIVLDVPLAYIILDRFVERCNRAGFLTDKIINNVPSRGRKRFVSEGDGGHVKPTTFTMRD
UniProt Q9VCK0: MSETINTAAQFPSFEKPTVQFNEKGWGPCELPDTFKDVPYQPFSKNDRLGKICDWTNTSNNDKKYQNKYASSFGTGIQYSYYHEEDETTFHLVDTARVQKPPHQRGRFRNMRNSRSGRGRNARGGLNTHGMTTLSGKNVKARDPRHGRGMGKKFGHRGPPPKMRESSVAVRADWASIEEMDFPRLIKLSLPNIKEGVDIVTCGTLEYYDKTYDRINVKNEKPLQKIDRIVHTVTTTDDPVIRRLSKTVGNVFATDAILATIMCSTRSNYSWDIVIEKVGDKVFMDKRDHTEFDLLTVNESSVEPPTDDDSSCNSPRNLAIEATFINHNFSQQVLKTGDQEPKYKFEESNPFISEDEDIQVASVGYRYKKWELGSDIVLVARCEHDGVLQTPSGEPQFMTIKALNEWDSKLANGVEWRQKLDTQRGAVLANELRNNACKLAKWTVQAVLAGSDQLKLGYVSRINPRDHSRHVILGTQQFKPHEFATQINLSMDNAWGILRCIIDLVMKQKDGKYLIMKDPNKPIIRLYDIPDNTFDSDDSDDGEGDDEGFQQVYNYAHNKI
UniProt Q07152: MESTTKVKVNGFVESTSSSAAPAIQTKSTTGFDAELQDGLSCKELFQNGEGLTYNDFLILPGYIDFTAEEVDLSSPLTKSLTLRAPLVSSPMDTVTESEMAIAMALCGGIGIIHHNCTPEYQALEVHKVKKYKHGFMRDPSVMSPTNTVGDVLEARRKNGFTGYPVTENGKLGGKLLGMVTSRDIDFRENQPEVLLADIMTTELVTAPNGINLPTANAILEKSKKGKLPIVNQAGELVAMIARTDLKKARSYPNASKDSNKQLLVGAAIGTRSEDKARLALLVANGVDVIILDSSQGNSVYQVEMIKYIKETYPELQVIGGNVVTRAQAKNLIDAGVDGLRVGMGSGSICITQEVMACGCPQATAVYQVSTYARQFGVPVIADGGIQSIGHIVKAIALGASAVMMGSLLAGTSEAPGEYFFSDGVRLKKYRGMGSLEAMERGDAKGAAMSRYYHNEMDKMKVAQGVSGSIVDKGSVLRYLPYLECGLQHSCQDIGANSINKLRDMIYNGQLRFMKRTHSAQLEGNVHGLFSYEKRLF
UniProt Q9VX62: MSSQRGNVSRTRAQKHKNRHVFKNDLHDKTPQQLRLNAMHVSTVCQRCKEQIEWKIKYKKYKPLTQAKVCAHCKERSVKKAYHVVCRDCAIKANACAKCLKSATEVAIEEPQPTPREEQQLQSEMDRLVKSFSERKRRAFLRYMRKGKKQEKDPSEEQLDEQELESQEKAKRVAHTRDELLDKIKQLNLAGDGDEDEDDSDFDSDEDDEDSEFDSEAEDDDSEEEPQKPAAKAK

The target of assay [2] is T1, CTPS-TurboID-V5 (wild-type Drosophila CTP synthase fused to TurboID and V5) (Drosophila). The assay is described as above. The source holds these as a separate data set.

Where two headings read alike, the source gives them in different places. Results are given in words; binding and its absence hold for the method and conditions named. In cells and extracts the contact can be indirect. A yes stands for co-enrichment or nearness to the bait. Other partners may have been found. Sequences can lack the tags named with a protein.

With “CG6340 (Drosophila (endogenous in fly ovaries))”, in assay [1], the binding entry was “binds”.

Turning to “Pdcd4 (endogenous) (from UniProt Q9VY91)”, in assay [1], the binding entry is given as “binds”. “Ytr (yantar) (Drosophila (endogenous in fly ovaries))”: the binding entry in assay [1] is “binds”. Same read-out and setting: the entry for “eIF-3p66, subunit of the eukaryotic translation initiation factor 3 (eIF3) (from UniProt Q9VCK0 1-560)” is “binds”; for “Ras (Inosine monophosphate dehydrogenase) (from UniProt Q07152 1-537) (enzyme)” it is “binds”; for CG8675 (from UniProt Q9VX62) it is “binds”.

B1: Catsup (endogenous) (protein, UniProt Q9V3A4 1-449)
chain: MAKQVADYQCSKLQLYQKLALVVILGAVLFSLPALCAGQGNPSFKYSREANENFDPQKAPRAEHHHHHDHDHDHGHHHHGHDHDHDHDHGHDHGHHHHGHDHDHDHDHGHHHHGHDERHTKAKPDLDMSTIWLHSIGSTLLISAAPFVLLYIIPLDNSEAMKPRLKVLLAFASGGLLGDAFLHLIPHATHPHSHGEHGHDHGHDHHHHHDGEEHEHGHSHDMSIGLWVLGGIIAFLSVEKLVRILKGGHGGHGHSHGAPKPKPVPAKKKSSDKEDSGDGDKPAKPAKIKSKKPEAEPEGEVEISGYLNLAADFAHNFTDGLAIGASYLAGNSIGIVTTITILLHEVPHEIGDFAILIKSGCSRRKAMLLQLVTALGALAGTALALLGAGGGDGSAPWVLPFTAGGFIYIATVSVLPELLEESTKLKQSLKEIFALLTGVALMIVIAKFE
As for B1, the binding entry in assay [2] is on record as “binds”.

B2: eIF3-S10, subunit of the eukaryotic translation initiation factor 3 (eIF3) (protein, UniProt Q9VN25 1-1140)
chain: MARYTQRPENALKRANEFIEVGKPLRALDTLQEVFRNKRWNYAYSETVIEPLMFKYLYLCVELKKSHIAKEGLFQYRNMFQLVNVNSLENVIRGYLKMAEEHTEAAQAQSSAAVAVLELDDLDNIATPESILMSAVCGEDAQDRSDRTILLPWVKFLWESYCQCLELLRVNTHCEALYHDIARMAFQFCLKYNRKSEFRRLCDKLRKHLEDICKSSNQTTGVSINKVETQQLCLDTRLYLLDSAIQMELWQEAYKAIEDIHGLMALSKKTPVPKTMANYYQKLAMVFSKAGNQLFHAAALLKLFQLTRELKKNLTKDDLQRMAAHVLLATLSIPLPSAHPEFDRFIEADKSPLEKAQKLAVLLGLPQPPTRVSLIREVVRLNVPQLVSEDFRNLYNWLEVDFNPLNLCKRIQSIVDFIENGPENALLTPYIQSLKDVTIMRLIRQISQVYESIKFQRLLQLASFCNIFELEKLLVESVRHNDMQIRIDHQKNSIYFGTDLTESQREYRPDGPALQSMPSEQIRSQLVNMSTVLTRAVSIVYPNRERDQRAKLRNQMVNHYHEIKDREHQRILQRQKIIEDRKEYIEKQNNAREEEEARRQEEESRKAKLAEQKRLEQEQEERERKRHQNEIQAIREKSLKEKVQQISQTAHGKKMLSKLDEEGIKKLDAEQIAKRESEELQREAKELQSKLKSQEKKIDYFERAKRLEEIPLFEKYLAEKQVKDKEFWEATEKTRIENAIAERKDAVAQQERLKRMYPDRDEFLEALKKERASLYVEKLKKFEAALEAERKKRLADRIIRRREERRQAFLREKEEERLRKEEEIRLAQAAEERAAAEARRLEREAEDEKRRAQYEKQRAKEEEAERKIKEDRDRLSRELASERERTEKDRDTWRPRGGDRPSASNGGSSEWRRAAPAASERNDRGGERIERGGERIERGGERLERGGERIERGGDRDRKDNEGADSSWRVRREPDSQRAAAPKDSGAPQSRDDKWRRGGERDRDFRIDGARRDRDDGPRRDRDDGPRRDRDDERGGFRRADGARRTDEPQRETGGNWRDAPRHADRETRRPAERRDRDVRETRGDQRGSAPKEAASGGVGGNWRTAPATREEKPAAKRDQAQEKENKAGDDGEWTSVKRR
As to B2, the binding result in assay [2] is “binds”.

B3: eIF-3p40, subunit of the eukaryotic translation initiation factor 3 (eIF3) (protein, UniProt Q9U9Q4 1-338)
chain: MANRANRHAARTEDSDNTINYVQCDGLAVMKMVKHCHEESSNMDLAQGALLGLVVDKCLEITNCFPFPKSGDETMDEEMYQLTVMRRLRRVNVDHLHVGWYQSSDVGNSLSMALLESQYHYQTSIEESVVVVYDTQKSSRGFLCLKAYRLTPQAIQMYKDGDFTPEAFRTLKVGYENLFAEIPIVIKNSPLTNIMMSELNELLPEDKGHNFLDLGTATVLENQMRSLIERVDELYQEAVRYNKYQQVVFKQDTEKHRALAKLAAENAVRTSKGEPTVPEEEVIKQFRPMTAPNRLTATITSGQINTHAQHIAQFCSQSLAKLFITESLQIAKEAKETK
For the molecule B3, the binding entry in assay [2] is “binds”.

B4: eIF3-S8, subunit of the eukaryotic translation initiation factor 3 (eIF3) (protein, UniProt A1ZAX1 1-910)
chain: MSRFFANGSESESESSEEEIQATNFNKASAFQFSDDEEEVKRVVRSTKEKRYENLTSIIKTIRNHKKIKDIPNTLSSFEDLTRAYQKALPVISKEENGITPRFYIRCLAELEDFINEVWEDREGRKNLSKNNSKSLGTLRQKVRKYIKDFEDDLSRFREAPDQESEAEDEVVALESDGGDAGDDSDAGVKPTEAVPKAVKSAPAKAAPADDDDSDDSIDWDSDSESETESSDDENQYQNMRERFLKRTTEKEEKDDDKRKDKRKEQKTKIRKRAEDDEDGEWETVVKGHVVEKPKMFEKDAEIDVPLVLAKLLEIMSARGKKRTDRRLQIDLLFELRDISDQHNLGTAVSVKIHFNIISAIYDYNQKISEPMKLEHWALLLEVMQSMMKLLLANADIIMSESVAEEHEEYATSPFYVRGCPLAAVERLDDEFVKLLKECDPHSNDYVSRLKDEVNVVKTIELVLQYFERSGTNNERCRIYLRKIEHLYYKFDPEVLKKKRGELPATTSTSVDVMDKLCKFIYAKDDTDRIRTRAILAHIYHHAMHDNWFQARDLVLMSHLQDNIDAADPATRILYNRMMANLGLCAFRQGNVKDAHHCLVDLMVTGKPKELLAQGLLPQRQHERSAEQEKIEKQRQMPFHMHINLELLECVYLVSAMLLEIPYIAAHEFDARRRMISKTFYQQLRSSERQSLVGPPESMREHVVAAAKAMRCGNWQACANFIVNKKMNTKVWDLFYESDRVREMLTKFIKEESLRTYLFTYSNVYTSISIPSLAQMYELPVPKVHSIISKMIINEELMASLDDPSETVGMHRSEPSRLQALAMQFVDKVTNLVDVNEKVFDMKQGNFFQRGNMGNRGDRGYNRNQNNQGGNWLGQRRDRNNRNRNQRGHHKNNQDRQQQQQQQVQTIDEE
As for B4, the binding entry in assay [2] is “binds”.

B5: Awd (abnormal wing discs), nucleotide diphosphate kinase (enzyme, UniProt P08879 1-153)
chain: MAANKERTFIMVKPDGVQRGLVGKIIERFEQKGFKLVALKFTWASKELLEKHYADLSARPFFPGLVNYMNSGPVVPMVWEGLNVVKTGRQMLGATNPADSLPGTIRGDFCIQVGRNIIHGSDAVESAEKEIALWFNEKELVTWTPAAKDWIYE
Turning to B5, the binding entry in assay [2] is recorded as “binds”.

The values above are taken from PMC8104946.
